Laboratory results published in the supplement of paper PMC12067093, “Discovery and optimisation of a covalent ligand for TRIM25 and its application to targeted protein ubiquitination” (Chemical Science, 2025).
This is one part of the list.

Protein sequences, listed by entry. Tags and fused reporters are not part of them. Lines headed by an entry give the natural chain unless they say otherwise; changes in a name come on top.
UniProt Q29RF7: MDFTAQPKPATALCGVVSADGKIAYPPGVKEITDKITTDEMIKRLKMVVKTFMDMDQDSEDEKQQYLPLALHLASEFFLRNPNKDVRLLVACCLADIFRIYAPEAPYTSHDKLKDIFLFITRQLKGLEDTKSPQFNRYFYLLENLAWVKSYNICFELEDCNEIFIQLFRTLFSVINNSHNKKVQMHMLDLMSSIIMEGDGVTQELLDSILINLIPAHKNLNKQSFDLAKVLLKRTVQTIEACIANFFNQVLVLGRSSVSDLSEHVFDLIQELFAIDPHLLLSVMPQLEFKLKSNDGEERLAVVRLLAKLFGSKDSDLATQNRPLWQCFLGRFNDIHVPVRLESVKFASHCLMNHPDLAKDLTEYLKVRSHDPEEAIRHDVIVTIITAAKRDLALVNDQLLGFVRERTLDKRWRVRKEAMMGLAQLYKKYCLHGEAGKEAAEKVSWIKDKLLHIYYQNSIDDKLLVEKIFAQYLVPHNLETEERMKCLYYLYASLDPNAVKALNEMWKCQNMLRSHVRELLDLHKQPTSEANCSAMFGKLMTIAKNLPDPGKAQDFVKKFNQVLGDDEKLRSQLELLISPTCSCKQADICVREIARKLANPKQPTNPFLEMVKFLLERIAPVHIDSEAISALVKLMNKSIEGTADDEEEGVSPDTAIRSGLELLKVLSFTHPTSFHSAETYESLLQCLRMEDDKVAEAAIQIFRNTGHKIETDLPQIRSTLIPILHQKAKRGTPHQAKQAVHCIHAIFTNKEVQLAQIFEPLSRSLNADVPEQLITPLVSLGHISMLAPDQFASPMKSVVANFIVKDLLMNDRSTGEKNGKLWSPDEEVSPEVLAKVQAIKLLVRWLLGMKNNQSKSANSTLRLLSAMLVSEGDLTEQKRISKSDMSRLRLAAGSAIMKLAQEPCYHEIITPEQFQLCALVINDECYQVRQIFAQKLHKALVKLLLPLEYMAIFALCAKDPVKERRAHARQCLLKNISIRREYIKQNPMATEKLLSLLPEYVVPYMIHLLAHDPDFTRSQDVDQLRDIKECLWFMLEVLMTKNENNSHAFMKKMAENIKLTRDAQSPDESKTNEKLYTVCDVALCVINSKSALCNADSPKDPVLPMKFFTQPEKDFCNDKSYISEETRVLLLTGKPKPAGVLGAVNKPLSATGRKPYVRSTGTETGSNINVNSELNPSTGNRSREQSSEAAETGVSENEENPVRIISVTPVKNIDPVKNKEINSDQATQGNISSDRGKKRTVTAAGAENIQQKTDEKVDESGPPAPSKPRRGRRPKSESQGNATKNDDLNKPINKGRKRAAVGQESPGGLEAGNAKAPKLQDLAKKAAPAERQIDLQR
UniProt Q86U86, whole entry, looked up: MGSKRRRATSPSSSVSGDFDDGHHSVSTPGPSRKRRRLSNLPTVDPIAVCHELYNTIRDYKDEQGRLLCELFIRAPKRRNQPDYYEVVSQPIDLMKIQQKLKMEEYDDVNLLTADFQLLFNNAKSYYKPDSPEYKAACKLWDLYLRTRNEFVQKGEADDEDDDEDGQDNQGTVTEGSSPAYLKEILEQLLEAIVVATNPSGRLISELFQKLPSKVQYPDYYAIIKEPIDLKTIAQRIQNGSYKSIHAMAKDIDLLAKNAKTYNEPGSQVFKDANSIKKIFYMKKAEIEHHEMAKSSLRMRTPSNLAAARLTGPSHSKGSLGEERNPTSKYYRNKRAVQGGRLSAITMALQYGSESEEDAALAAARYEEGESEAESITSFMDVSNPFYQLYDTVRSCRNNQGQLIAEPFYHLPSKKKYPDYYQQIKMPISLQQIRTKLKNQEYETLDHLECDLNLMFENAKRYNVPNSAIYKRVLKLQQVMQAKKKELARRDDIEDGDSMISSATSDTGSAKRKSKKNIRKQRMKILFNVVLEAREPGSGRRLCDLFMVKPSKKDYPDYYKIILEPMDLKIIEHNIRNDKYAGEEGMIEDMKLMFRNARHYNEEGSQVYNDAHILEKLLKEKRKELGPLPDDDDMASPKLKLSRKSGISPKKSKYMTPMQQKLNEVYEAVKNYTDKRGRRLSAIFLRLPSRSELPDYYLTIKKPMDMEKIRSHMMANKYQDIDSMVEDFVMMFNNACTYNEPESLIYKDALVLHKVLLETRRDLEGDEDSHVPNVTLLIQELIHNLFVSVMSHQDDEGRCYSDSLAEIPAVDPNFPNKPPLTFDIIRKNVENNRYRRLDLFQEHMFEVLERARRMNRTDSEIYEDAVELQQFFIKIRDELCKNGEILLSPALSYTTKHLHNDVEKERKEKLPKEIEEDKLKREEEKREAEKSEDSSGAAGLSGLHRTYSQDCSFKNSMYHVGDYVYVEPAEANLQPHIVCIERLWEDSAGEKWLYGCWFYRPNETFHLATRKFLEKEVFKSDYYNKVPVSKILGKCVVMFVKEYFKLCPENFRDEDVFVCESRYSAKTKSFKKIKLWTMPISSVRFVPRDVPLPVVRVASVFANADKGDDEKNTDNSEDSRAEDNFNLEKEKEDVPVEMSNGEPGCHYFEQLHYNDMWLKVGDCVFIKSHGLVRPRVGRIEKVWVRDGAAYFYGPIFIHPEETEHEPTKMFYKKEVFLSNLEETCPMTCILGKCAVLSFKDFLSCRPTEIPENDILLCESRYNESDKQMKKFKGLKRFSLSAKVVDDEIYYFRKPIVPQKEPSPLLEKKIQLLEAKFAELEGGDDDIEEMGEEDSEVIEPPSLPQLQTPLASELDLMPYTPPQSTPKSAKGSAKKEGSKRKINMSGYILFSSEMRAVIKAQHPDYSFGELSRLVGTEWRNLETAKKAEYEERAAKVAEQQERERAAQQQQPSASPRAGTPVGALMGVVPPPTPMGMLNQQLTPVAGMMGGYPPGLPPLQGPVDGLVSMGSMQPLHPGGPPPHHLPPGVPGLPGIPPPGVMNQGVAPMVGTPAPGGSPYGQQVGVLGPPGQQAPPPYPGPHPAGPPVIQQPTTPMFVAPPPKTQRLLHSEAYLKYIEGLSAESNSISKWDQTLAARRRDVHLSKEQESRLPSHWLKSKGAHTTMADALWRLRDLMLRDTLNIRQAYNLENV
UniProt Q9HBE1: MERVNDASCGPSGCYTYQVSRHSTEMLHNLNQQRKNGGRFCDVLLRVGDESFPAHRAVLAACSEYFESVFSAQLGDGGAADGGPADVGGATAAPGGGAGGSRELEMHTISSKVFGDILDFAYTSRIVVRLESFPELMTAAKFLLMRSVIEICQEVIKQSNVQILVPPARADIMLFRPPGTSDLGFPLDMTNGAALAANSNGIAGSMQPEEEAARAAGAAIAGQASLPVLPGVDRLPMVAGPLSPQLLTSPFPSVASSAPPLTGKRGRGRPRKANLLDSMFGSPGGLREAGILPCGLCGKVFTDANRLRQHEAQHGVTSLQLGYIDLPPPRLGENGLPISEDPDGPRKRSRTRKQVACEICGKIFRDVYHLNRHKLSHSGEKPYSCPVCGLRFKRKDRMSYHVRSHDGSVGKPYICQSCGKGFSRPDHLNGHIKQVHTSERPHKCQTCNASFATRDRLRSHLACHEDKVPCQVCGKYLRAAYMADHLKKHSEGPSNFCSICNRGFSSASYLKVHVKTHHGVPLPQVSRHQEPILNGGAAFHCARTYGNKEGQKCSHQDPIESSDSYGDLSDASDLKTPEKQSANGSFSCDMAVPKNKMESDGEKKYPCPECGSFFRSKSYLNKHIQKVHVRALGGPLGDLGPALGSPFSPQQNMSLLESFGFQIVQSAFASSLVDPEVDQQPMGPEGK
UniProt Q9UHG3: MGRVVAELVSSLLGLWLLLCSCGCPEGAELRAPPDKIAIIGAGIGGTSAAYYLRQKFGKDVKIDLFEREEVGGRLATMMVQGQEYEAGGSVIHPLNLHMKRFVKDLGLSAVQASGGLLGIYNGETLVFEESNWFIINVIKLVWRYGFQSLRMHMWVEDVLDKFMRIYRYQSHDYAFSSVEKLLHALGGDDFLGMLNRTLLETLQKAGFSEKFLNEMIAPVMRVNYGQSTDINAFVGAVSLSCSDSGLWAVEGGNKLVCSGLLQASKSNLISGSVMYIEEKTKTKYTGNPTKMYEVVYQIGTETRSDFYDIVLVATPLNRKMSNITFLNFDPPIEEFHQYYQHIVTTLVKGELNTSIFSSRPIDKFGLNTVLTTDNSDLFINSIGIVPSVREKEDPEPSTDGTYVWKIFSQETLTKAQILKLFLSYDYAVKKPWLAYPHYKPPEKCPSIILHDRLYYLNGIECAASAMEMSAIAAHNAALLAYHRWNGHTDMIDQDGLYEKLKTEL

Compound: CC1Cc2ccccc2N1C(=O)C1CCCN(C1)C(=O)CCl (mixture of isomers) [TRIM25 ligand 11 (diastereomer mixture)]
Assay: probe-labelled cysteine peptide fold change vs DMSO (competition) (log2 fold change); higher = less target engagement (more negative = stronger competition)
Settings: THP-1, incubation time: 4 h
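Note: competitive chemoproteomic profiling in live THP-1 cells with an iodoacetamide desthiobiotin (IA-DTB) probe, comparing probe-labelled peptide intensities in compound-treated cells against DMSO-treated controls.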

| Target | probe-labelled cysteine peptide fold change (10 µM) | probe-labelled cysteine peptide fold change (50 µM) |
| --- | --- | --- |
| PDS5A_Q29RF7_350_FASHCLMNHPDLAK (UniProt Q29RF7) | -0.055 | -0.0499 |
| PBRM1_Q86U86_1244+1257_DFLSCRPTEIPENDILLCESR (UniProt Q86U86) | 0.0435 | 0.00111 |
| PATZ1_Q9HBE1_463_SHLACHEDK (UniProt Q9HBE1) | -0.0651 | -0.0716 |
| PCYOX1_Q9UHG3_258_LVCSGLLQASK (UniProt Q9UHG3) | 0.0254 | -0.0374 |
